# From the supplement of paper PMC8728848
# This is one part of the list.
# B1: Pwp6 (Candida glabrata) (protein)
# chain: MGSSHHHHHHSSGLVPRGSHMASANLPKLTNICQIPDNVKKTSGFKGEIRRIGLFPPGGDYTYLLKFPSTGSTASDTISLTTKPQLSTSGWFPSLFGHTYFIKADLLVYMVAYFVPTETGEYTFKLVNSDDAAVMYVGNPSAFPCGSIDTWPEPRKEDINVCDKISASTKLYMEKGLAYPVRLVWYNGGGDGQFNAQFIDPSGTTHTDWNGYVWQYDACTDCDYK
# How the values were obtained:
# Experiment in all cases: glycan array binding signal (z-score within array); higher = stronger binding
# Settings in all cases: glycan notation: IUPAC condensed, linker removed
# [1] = target: Gal(b1-2)Gal
# Method in brief: (§1)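 Glycan array data were curated from 3228 arrays in the Consortium for Functional Glycomics database and kept only where the protein sequence was available. Glycan names were converted to IUPAC-condensed notation, and columns mapping to the same glycan were averaged. The binding signal is a within-array Z-score, averaged across arrays of the same protein sequence at different concentrations or buffers and across linkers. Negative Z-scores can be read as non-binding.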
# [2] = target: Gal(b1-3)Gal
# Method in brief: as §1
# [3] = target: Gal(b1-3)Gal(b1-4)GlcNAc
# Method in brief: as §1
# [4] = target: Gal(b1-3)GalNAc
# Method in brief: as §1
# [5] = target: Gal(b1-3)GalNAc(a1-3)[Fuc(a1-2)]Gal(b1-4)Glc
# Method in brief: as §1
# [6] = target: Gal(b1-3)GalNAc(a1-3)[Fuc(a1-2)]Gal(b1-4)GlcNAc
# Method in brief: as §1
# [7] = target: Gal(b1-3)GalNAc(b1-3)Gal
# Method in brief: as §1
# [8] = target: Gal(b1-3)GalNAc(b1-3)Gal(a1-4)Gal(b1-4)Glc
# Method in brief: as §1
# [9] = target: Gal(b1-3)GalNAc(b1-4)Gal(b1-4)Glc
# Method in brief: as §1
# [10] = target: Gal(b1-3)GalNAc(b1-4)[Neu5Ac(a2-3)]Gal(b1-4)Glc
# Method in brief: as §1
# [11] = target: Gal(b1-3)GlcNAc
# Method in brief: as §1
# [12] = target: Gal(b1-3)GlcNAc(a1-3)Gal(b1-4)GlcNAc
# Method in brief: as §1
# [13] = target: Gal(b1-3)GlcNAc(a1-6)Gal(b1-4)GlcNAc
# Method in brief: as §1
# [14] = target: Gal(b1-3)GlcNAc(b1-2)Man
# Method in brief: as §1
# [15] = target: Gal(b1-3)GlcNAc(b1-2)Man(a1-3)[Gal(b1-3)GlcNAc(b1-2)Man(a1-6)]Man(b1-4)GlcNAc(b1-4)GlcNAc
# Method in brief: as §1
# [16] = target: Gal(b1-3)GlcNAc(b1-2)Man(a1-3)[Gal(b1-3)GlcNAc(b1-2)Man(a1-6)]Man(b1-4)GlcNAc(b1-4)[Fuc(a1-6)]GlcNAc
# Method in brief: as §1
# [17] = target: Gal(b1-3)GlcNAc(b1-2)Man(a1-3)[GlcNAc(b1-4)][Gal(b1-3)GlcNAc(b1-2)Man(a1-6)]Man(b1-4)GlcNAc(b1-4)GlcNAc
# Method in brief: as §1
# [18] = target: Gal(b1-3)GlcNAc(b1-2)[Gal(b1-3)GlcNAc(b1-6)]Man(a1-6)[Gal(b1-3)GlcNAc(b1-2)Man(a1-3)]Man(b1-4)GlcNAc(b1-4)GlcNAc
# Method in brief: as §1
# [19] = target: Gal(b1-3)GlcNAc(b1-3)Gal(b1-3)GlcNAc
# Method in brief: as §1
# [20] = target: Gal(b1-3)GlcNAc(b1-3)Gal(b1-4)Glc
# Method in brief: as §1
# [21] = target: Gal(b1-3)GlcNAc(b1-3)Gal(b1-4)GlcNAc
# Method in brief: as §1
# [22] = target: Gal(b1-3)GlcNAc(b1-3)Gal(b1-4)GlcNAc(b1-2)Man(a1-3)[Gal(b1-3)GlcNAc(b1-3)Gal(b1-4)GlcNAc(b1-2)Man(a1-6)]Man(b1-4)GlcNAc(b1-4)GlcNAc
# Method in brief: as §1
# [23] = target: Gal(b1-3)GlcNAc(b1-3)Gal(b1-4)GlcNAc(b1-2)[Gal(b1-3)GlcNAc(b1-3)Gal(b1-4)GlcNAc(b1-6)]Man(a1-6)[Gal(b1-3)GlcNAc(b1-3)Gal(b1-4)GlcNAc(b1-2)Man(a1-3)]Man(b1-4)GlcNAc(b1-4)[Fuc(a1-6)]GlcNAc
# Method in brief: as §1
# [24] = target: Gal(b1-3)GlcNAc(b1-3)Gal(b1-4)GlcNAc(b1-3)Gal(b1-4)GlcNAc(b1-2)[Gal(b1-3)GlcNAc(b1-3)Gal(b1-4)GlcNAc(b1-3)Gal(b1-4)GlcNAc(b1-6)]Man(a1-6)[Gal(b1-3)GlcNAc(b1-3)Gal(b1-4)GlcNAc(b1-3)Gal(b1-4)GlcNAc(b1-2)Man(a1-3)]Man(b1-4)GlcNAc(b1-4)[Fuc(a1-6)]GlcNAc
# Method in brief: as §1
# [25] = target: Gal(b1-3)GlcNAc(b1-3)Gal(b1-4)GlcNAc(b1-6)[Gal(b1-3)GlcNAc(b1-3)]Gal(b1-4)Glc
# Method in brief: as §1
# [26] = target: Gal(b1-3)GlcNAc(b1-3)Gal(b1-4)[Fuc(a1-3)]GlcNAc
# Method in brief: as §1
# [27] = target: Gal(b1-3)GlcNAc(b1-3)Gal(b1-4)[Fuc(a1-3)]GlcNAc(b1-6)[Gal(b1-3)GlcNAc(b1-3)]Gal(b1-4)Glc
# Method in brief: as §1
# [28] = target: Gal(b1-3)GlcNAc(b1-3)GalNAc
# Method in brief: as §1
# [29] = target: Gal(b1-3)GlcNAc(b1-6)Gal(b1-4)GlcNAc
# Method in brief: as §1
# [30] = target: Gal(b1-3)GlcNAc(b1-6)GalNAc
# Method in brief: as §1
# [31] = target: Gal(b1-3)GlcNAc(b1-6)[Gal(b1-3)]GalNAc
# Method in brief: as §1
# [32] = target: Gal(b1-3)GlcNAc6S
# Method in brief: as §1
# [33] = target: Gal(b1-3)[Fuc(a1-4)]GlcNAc
# Method in brief: as §1
# [34] = target: Gal(b1-3)[Fuc(a1-4)]GlcNAc(b1-2)Man
# Method in brief: as §1
# [35] = target: Gal(b1-3)[Fuc(a1-4)]GlcNAc(b1-2)Man(a1-3)[Gal(b1-3)[Fuc(a1-4)]GlcNAc(b1-2)Man(a1-6)]Man(b1-4)GlcNAc(b1-4)[Fuc(a1-6)]GlcNAc
# Method in brief: as §1
# [36] = target: Gal(b1-3)[Fuc(a1-4)]GlcNAc(b1-3)Gal(b1-3)[Fuc(a1-4)]GlcNAc
# Method in brief: as §1
# [37] = target: Gal(b1-3)[Fuc(a1-4)]GlcNAc(b1-3)Gal(b1-4)[Fuc(a1-3)]GlcNAc
# Method in brief: as §1
# [38] = target: Gal(b1-3)[Fuc(a1-4)]GlcNAc(b1-6)GalNAc
# Method in brief: as §1
# [39] = target: Gal(b1-3)[GlcNAc(b1-6)]GalNAc
# Method in brief: as §1
# [40] = target: Gal(b1-3)[Neu5Ac(a2-6)]GalNAc
# Method in brief: as §1
# [41] = target: Gal(b1-3)[Neu5Ac(a2-6)]GlcNAc(b1-4)Gal(b1-4)Glc
# Method in brief: as §1
# [42] = target: Gal(b1-3)[Neu5Ac(b2-6)]GalNAc
# Method in brief: as §1
# [43] = target: Gal(b1-4)Gal
# Method in brief: as §1
# [44] = target: Gal(b1-4)GalNAc(a1-3)[Fuc(a1-2)]Gal(b1-4)GlcNAc
# Method in brief: as §1
# [45] = target: Gal(b1-4)GalNAc(b1-3)[Fuc(a1-2)]Gal(b1-4)GlcNAc
# Method in brief: as §1
binder,measurement,setting,value
B1,glycan array binding signal (z-score),[1],-0.685
same,glycan array binding signal (z-score),[2],-0.945
same,glycan array binding signal (z-score),[3],-0.617
same,glycan array binding signal (z-score),[4],-0.22
same,glycan array binding signal (z-score),[5],-0.124
same,glycan array binding signal (z-score),[6],-0.316
same,glycan array binding signal (z-score),[7],-0.632
same,glycan array binding signal (z-score),[8],-0.281
same,glycan array binding signal (z-score),[9],0.163
same,glycan array binding signal (z-score),[10],-0.134
same,glycan array binding signal (z-score),[11],-0.708
same,glycan array binding signal (z-score),[12],-0.532
same,glycan array binding signal (z-score),[13],-0.419
same,glycan array binding signal (z-score),[14],-0.876
same,glycan array binding signal (z-score),[15],0.331
same,glycan array binding signal (z-score),[16],-0.261
same,glycan array binding signal (z-score),[17],0.054
same,glycan array binding signal (z-score),[18],0.538
same,glycan array binding signal (z-score),[19],-0.044
same,glycan array binding signal (z-score),[20],-0.487
same,glycan array binding signal (z-score),[21],-0.208
same,glycan array binding signal (z-score),[22],0.354
same,glycan array binding signal (z-score),[23],2.53
same,glycan array binding signal (z-score),[24],1.06
same,glycan array binding signal (z-score),[25],0.772
same,glycan array binding signal (z-score),[26],-0.59
same,glycan array binding signal (z-score),[27],-0.346
same,glycan array binding signal (z-score),[28],-0.228
same,glycan array binding signal (z-score),[29],-0.893
same,glycan array binding signal (z-score),[30],-0.063
same,glycan array binding signal (z-score),[31],-0.167
same,glycan array binding signal (z-score),[32],-0.52
same,glycan array binding signal (z-score),[33],-0.676
same,glycan array binding signal (z-score),[34],-0.152
same,glycan array binding signal (z-score),[35],-0.018
same,glycan array binding signal (z-score),[36],0.836
same,glycan array binding signal (z-score),[37],-0.441
same,glycan array binding signal (z-score),[38],1.75
same,glycan array binding signal (z-score),[39],-0.459
same,glycan array binding signal (z-score),[40],0.134
same,glycan array binding signal (z-score),[41],-0.455
same,glycan array binding signal (z-score),[42],-0.465
same,glycan array binding signal (z-score),[43],-0.05
same,glycan array binding signal (z-score),[44],-0.17
same,glycan array binding signal (z-score),[45],-0.651

# 4 records picked at random from those above, as already listed:
binder,measurement,setting,value
B1,glycan array binding signal (z-score),[41],-0.455
same,glycan array binding signal (z-score),[45],-0.651
same,glycan array binding signal (z-score),[5],-0.124
same,glycan array binding signal (z-score),[12],-0.532
